Our source for the binding values is article PMC3217859.

Amino acid sequences for entries named in this document (tags omitted). A change or cut given only in a name is not applied to a line headed by its entry.
UniProt P67775: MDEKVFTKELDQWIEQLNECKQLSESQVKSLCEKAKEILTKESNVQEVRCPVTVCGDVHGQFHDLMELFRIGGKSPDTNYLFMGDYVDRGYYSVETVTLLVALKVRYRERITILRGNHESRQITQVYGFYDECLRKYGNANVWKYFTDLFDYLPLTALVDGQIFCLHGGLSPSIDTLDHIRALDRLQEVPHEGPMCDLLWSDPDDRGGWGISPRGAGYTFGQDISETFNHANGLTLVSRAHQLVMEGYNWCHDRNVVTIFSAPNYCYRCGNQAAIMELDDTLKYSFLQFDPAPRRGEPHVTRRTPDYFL

No constants are given. Whether binding was seen depends on the method and setting. Binding seen in cells or lysates may run through a third protein. For part of these data: A result given as binding can be weak or reduced; the word gives no strength. For part of these data: Tags and fused reporters may be left off the sequences shown.

Holding throughout (test): co-IP; anti-HA immunoprecipitates (12CA5 with protein A-Sepharose, or F7 anti-HA-agarose when probing for Mst3 or Mst4; 1.5 h, 4°C) of lysates (1% Nonidet P-40, 0.135 M NaCl, 10% glycerol, 20 mM Tris pH 8.0) of HEK293 cells transfected with HA-striatins; endogenous partners by immunoblot, partner/HA-striatin ratio by chemilumimager against wild type; 50 mM NaF and 100 nM okadaic acid in the lysis buffer in the phosphorylation experiments

In experiment [1] the target is T1, wild-type striatin with an N-terminal double HA epitope tag (modified pLenti6/V5-D-Topo plasmid) (human) (UniProt O43815).
T1 sequence: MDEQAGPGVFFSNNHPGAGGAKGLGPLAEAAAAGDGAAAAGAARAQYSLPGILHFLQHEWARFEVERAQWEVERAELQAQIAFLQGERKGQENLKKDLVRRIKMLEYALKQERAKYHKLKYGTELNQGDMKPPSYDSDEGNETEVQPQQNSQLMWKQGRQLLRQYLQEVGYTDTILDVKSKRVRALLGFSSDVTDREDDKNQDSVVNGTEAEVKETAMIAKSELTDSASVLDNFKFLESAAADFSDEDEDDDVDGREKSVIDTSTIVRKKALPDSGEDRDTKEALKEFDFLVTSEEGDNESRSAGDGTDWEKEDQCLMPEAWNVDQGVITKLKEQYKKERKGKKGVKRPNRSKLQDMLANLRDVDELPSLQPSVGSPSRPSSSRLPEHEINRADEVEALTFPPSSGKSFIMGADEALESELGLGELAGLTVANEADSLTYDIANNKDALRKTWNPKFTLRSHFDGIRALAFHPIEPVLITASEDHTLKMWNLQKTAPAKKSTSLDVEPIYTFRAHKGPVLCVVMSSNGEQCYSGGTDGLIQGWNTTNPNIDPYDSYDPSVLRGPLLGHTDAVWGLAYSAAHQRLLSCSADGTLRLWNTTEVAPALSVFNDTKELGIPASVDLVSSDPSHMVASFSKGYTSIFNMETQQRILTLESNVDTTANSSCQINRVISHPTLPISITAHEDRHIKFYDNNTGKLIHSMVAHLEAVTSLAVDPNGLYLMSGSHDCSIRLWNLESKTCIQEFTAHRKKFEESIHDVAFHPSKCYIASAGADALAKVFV

The target in experiment [2] is T2, HA-tagged Δ(3-309) striatin (human) (UniProt O43815).
T2 sequence: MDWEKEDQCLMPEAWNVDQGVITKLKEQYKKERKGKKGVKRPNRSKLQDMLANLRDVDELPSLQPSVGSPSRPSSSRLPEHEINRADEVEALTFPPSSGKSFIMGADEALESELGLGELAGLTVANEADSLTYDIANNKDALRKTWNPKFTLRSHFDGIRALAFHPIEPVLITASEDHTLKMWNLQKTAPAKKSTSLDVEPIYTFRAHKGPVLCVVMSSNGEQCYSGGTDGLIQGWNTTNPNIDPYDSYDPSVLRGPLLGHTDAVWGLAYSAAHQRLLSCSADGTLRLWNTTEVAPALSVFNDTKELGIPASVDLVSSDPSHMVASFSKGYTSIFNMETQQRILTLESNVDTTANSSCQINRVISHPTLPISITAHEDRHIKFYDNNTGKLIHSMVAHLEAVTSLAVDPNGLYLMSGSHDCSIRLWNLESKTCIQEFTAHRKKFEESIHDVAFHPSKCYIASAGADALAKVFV

Experiment [3] addresses T3, P132Stop striatin (human) (UniProt O43815).
T3 sequence: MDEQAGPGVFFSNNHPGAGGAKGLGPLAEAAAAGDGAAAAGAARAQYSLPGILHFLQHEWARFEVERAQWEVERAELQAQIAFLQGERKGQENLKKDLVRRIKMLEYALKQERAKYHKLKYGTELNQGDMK

Experiment [4] addresses T4, HA-tagged K270Stop striatin (human) (UniProt O43815).
T4 sequence: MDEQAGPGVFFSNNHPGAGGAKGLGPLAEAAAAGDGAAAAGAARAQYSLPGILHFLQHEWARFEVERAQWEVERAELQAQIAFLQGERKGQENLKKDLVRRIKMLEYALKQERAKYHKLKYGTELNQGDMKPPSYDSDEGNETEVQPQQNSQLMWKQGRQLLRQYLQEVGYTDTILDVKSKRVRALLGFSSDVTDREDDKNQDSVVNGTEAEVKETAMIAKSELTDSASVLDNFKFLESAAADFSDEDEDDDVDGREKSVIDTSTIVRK

The next experiment concerns the target T5, 46-131 striatin (human) (UniProt O43815).
T5 sequence: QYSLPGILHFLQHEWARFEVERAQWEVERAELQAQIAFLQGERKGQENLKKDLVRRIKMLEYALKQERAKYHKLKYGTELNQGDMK

Experiment [5] deals with T6, HA-tagged F457Stop striatin (human) (UniProt O43815).
T6 sequence: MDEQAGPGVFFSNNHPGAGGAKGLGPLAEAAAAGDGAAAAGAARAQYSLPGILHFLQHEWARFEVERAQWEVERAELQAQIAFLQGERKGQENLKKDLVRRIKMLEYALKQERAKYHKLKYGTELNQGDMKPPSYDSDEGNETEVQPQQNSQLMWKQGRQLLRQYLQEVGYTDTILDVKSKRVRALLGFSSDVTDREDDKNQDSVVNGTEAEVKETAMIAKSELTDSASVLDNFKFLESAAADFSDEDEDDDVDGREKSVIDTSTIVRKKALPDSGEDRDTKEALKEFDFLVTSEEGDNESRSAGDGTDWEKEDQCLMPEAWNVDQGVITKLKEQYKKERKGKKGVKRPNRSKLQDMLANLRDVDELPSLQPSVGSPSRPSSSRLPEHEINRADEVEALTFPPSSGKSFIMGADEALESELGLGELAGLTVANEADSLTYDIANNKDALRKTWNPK

Experiment [6] concerns the target T7, HA-tagged wild-type striatin (human) (UniProt O43815).
T7 sequence: T1 sequence

In experiment [7] the target is HA-tagged Δ(148-166) striatin (human) (UniProt O43815).
Experiment [8] has as its target T8, HA-tagged Δ(70-116) striatin (human) (UniProt O43815).
T8 sequence: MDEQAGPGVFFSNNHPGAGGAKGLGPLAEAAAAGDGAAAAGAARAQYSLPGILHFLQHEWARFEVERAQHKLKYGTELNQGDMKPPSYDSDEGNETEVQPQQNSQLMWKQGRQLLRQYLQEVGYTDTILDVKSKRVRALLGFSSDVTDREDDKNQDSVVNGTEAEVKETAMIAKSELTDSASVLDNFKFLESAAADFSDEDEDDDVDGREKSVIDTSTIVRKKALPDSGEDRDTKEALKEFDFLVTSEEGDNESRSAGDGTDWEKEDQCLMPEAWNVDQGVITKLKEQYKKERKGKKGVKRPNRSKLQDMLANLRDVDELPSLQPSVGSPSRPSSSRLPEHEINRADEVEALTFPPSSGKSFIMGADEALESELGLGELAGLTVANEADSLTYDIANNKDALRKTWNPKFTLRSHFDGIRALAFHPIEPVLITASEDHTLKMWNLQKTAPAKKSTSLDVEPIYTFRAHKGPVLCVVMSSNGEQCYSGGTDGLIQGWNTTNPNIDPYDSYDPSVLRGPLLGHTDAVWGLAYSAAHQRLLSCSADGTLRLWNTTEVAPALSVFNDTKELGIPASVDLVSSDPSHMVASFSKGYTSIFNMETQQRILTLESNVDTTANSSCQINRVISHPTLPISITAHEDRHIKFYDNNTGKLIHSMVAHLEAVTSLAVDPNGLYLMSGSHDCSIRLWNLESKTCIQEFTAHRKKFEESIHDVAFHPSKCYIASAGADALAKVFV

In the case of “PP2A C subunit (from UniProt P67775) (enzyme)”, the binding result in experiment [1] is “binds”; in experiment [2], “no binding”; in experiment [3] it was “binds”; in experiment [4] it was “binds”; with 46-131 striatin (human), “binds”; in experiment [5] it was “binds”. In addition, the binding result in [6] is listed as “binds”; in experiment [7], “binds”; in experiment [8], “no binding”.
